Assay results taken from patent publication US20240197726A1, “NOVEL TETRAHYDROISOQUINOLINE ALKALOID COMPOUND CONTAINING MACROCYCLE” (THE UNIVERSITY OF TOKYO, priority 2021, published 2024).
At least one compound was matched to its structure with a doubt left.

Assays:
[1] = test system: DNA double strands; assay: Verification of DNA alkylating ability, electrophoresis method; format: biochemical
[2] = test system: various cancer cell lines; assay: Verification of antitumor activity, whole panel of cancer cell lines; format: cell-based; details: in words
Procedure: The THIQ compound containing a macrocyclic structure of the present invention was administered to various cancer cell lines, and the antitumor activity (Go value) was observed. Specifically, verification was performed according to the literature (Yamori, T.; Matsunaga, A.; Sato, S.; Yamazaki, K.; Komi, A.; Ishizu, K. et al. Cancer Res. 1999, 59, 4042) by the following procedure.
Cells were plated at an appropriate density in a 96-well plate in RPMI 1640 together with 5% fetal bovine serum, and adhered overnight. The cells were exposed to a drug for 48 hours. Then, according to the sulforhodamine B assay described by Skehan et al (Skehan P., Storeng R., Scudiero D., Monks A., McMahon J., Vistica D., Warren J. T., Bokesch H., Kenney S., Boyd M. R. J Natl. Cancer Inst, 1990, 82, 1107-1112), the cell growth rate was measured. The absorbance of the control well (C) and the test well (T) was measured at 525 nm. In addition, the time at which the drug was added was set as time 0, and the absorbance for the test well (T0) was measured. Using these measured values, the cell growth inhibitory effect (% growth=PG) was calculated by the following formula at each concentration of the drug.
(T<T0): PG=100×[(T−T0)/T]
The PG values determined above for each cell line were plotted against the concentration (logarithm) on a semi-logarithmic graph, and summarized for each visceral cancer. Concentrations at which the dose-response curve of each cell line crossed the horizontal line of PG=50%, 0%, or −50% were calculated. These concentrations were defined as Log GI50, Log TGI, and Log LC50. Actually, using two data points of the drug concentration before and after crossing each horizontal line, the drug concentration (logarithmic value) at the intersection of the straight line connecting the two points and the horizontal line for each PG was calculated.

[3] = compared with Cyanosafracin B, panel of cancer cell lines
[4] = compared with Ecteinascidin 743 or lurbinectedin, a plurality of cell lines

Row | SMILES | DNA alkylating ability [1] | antitumor activity [2, 3] | antitumor activity [2, 4]
1 | COc1c(C)cc2c(c1O)[C@@H]1[C@@H]3Cc4c5c(C)c6c(c4C(CNC(=O)[C@H](C)N(C)CC#CCO5)N3[C@@H](C#N)[C@H](C2)N1C)OCO6 [Compound 29] | exhibited a DNA alkylating ability | better antitumor activity than Cyanosafracin B | stronger antitumor activity for a plurality of cell lines than Ecteinascidin 743 or lurbinectedin
2 | C#CCN1C/C=C/C(=C)COc2c(C)c3c(c4c2C[C@H]2[C@H]5c6c(cc(C)c(OC)c6O)C[C@@H]([C@H](C#N)N2C4CNC(=O)[C@@H]1C)N5C)OCO3 [Compound 35] | – | better antitumor activity than Cyanosafracin B | stronger antitumor activity for a plurality of cell lines than Ecteinascidin 743 or lurbinectedin
